From article PMC9633835
These are yes or no findings as the source states them, for the method shown. Binding seen in cells or lysates may run through a third protein. A yes stands for co-enrichment or nearness to the bait. Other partners may have been found.

Protein sequences, listed by entry. Tags and fused reporters are not part of them. Lines headed by an entry give the natural chain unless they say otherwise; changes in a name come on top.
UniProt P23771: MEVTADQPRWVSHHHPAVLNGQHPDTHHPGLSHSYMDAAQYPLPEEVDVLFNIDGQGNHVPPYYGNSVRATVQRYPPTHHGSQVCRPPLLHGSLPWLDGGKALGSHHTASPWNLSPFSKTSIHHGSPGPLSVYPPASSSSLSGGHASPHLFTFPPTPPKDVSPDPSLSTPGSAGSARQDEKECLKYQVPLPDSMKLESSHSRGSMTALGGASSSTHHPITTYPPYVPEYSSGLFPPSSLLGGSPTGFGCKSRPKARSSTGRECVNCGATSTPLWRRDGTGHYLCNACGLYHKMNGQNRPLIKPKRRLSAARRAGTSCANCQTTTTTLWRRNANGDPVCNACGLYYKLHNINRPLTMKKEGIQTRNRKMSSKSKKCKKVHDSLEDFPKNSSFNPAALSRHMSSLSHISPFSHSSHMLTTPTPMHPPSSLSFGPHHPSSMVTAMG
UniProt Q09472: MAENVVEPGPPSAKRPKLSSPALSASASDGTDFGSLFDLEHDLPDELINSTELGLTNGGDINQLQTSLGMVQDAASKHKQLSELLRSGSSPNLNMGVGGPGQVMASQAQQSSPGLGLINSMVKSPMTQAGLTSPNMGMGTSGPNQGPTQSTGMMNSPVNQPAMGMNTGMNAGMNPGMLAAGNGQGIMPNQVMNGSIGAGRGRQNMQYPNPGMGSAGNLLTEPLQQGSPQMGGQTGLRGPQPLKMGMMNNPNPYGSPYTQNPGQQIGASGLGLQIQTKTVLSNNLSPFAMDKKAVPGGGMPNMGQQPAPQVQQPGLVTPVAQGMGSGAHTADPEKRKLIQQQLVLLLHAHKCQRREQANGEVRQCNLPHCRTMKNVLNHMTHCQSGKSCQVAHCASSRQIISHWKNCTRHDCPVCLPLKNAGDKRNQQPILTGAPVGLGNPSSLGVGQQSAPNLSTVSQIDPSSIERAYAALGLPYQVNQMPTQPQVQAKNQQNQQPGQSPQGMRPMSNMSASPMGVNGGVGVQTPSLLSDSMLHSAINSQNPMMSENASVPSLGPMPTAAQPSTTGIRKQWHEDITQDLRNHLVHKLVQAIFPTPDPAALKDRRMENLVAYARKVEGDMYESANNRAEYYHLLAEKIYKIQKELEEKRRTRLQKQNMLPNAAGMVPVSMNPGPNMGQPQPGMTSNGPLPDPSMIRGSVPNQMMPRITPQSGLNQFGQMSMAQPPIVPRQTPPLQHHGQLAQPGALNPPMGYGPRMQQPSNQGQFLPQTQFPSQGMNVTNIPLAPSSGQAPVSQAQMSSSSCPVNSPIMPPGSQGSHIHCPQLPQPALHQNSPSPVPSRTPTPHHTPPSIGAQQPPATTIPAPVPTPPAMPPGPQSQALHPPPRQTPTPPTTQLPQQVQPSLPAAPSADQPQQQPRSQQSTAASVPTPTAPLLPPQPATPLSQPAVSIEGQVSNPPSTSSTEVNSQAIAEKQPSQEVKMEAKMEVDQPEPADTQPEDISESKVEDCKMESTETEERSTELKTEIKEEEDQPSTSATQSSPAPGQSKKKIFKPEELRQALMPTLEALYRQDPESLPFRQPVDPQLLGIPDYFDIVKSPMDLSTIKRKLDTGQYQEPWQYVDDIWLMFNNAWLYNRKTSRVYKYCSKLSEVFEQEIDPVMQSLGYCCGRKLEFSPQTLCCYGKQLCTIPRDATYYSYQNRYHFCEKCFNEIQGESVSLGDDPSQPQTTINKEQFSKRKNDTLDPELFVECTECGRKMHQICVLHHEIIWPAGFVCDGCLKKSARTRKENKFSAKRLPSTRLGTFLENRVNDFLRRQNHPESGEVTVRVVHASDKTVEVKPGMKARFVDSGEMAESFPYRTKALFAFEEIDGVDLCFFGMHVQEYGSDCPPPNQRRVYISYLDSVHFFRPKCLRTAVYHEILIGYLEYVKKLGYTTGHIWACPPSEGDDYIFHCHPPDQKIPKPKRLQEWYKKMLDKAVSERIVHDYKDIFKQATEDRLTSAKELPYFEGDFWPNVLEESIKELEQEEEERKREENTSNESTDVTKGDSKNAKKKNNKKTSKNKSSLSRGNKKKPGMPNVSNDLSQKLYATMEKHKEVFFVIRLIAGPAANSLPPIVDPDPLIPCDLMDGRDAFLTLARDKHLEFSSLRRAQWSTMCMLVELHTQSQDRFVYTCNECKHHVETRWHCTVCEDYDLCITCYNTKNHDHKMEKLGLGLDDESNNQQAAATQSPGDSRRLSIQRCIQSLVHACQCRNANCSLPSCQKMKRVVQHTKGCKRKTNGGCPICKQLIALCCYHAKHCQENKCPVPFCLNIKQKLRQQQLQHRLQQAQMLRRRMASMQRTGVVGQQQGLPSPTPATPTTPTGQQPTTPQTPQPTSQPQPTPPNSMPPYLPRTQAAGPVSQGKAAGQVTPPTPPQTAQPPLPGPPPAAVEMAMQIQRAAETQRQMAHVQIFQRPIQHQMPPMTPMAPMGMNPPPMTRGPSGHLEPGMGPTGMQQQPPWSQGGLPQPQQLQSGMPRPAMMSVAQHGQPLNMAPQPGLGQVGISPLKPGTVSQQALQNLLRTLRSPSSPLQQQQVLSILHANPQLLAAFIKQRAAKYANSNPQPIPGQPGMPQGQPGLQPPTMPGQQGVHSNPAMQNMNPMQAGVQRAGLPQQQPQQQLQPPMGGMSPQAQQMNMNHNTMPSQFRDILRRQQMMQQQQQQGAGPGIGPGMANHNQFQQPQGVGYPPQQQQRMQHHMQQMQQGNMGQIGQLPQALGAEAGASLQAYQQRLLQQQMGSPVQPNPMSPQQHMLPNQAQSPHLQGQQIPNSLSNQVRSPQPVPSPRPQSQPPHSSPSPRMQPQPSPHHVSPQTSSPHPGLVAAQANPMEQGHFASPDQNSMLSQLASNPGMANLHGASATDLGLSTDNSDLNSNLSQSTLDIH

Molecular target: GATA-3 fused with the mutated E. coli biotin ligase BirA (R118G) (UniProt P23771)
Test: proximity labelling; BioID: BirA (R118G) fused with GATA-3 expressed from a doxycycline-inducible vector in Jurkat cells; biotinylated proteins enriched by affinity capture and identified by mass spectrometry; BirA-NLS cells as negative control

In the case of “histone acetyltransferase p300 (from UniProt Q09472 1-2414)”, the binding is reported as “binds”.

B1: ZFPM1 (protein, UniProt Q8IX07 1-1006)
chain: MSRRKQSNPRQIKRSLGDMEAREEVQLVGASHMEQKATAPEAPSPPSADVNSPPPLPPPTSPGGPKELEGQEPEPRPTEEEPGSPWSGPDELEPVVQDGQRRIRARLSLATGLSWGPFHGSVQTRASSPRQAEPSPALTLLLVDEACWLRTLPQALTEAEANTEIHRKDDALWCRVTKPVPAGGLLSVLLTAEPHSTPGHPVKKEPAEPTCPAPAHDLQLLPQQAGMASILATAVINKDVFPCKDCGIWYRSERNLQAHLLYYCASRQGTGSPAAAATDEKPKETYPNERVCPFPQCRKSCPSASSLEIHMRSHSGERPFVCLICLSAFTTKANCERHLKVHTDTLSGVCHSCGFISTTRDILYSHLVTNHMVCQPGSKGEIYSPGAGHPATKLPPDSLGSFQQQHTALQGPLASADLGLAPTPSPGLDRKALAEATNGEARAEPLAQNGGSSEPPAAPRSIKVEAVEEPEAAPILGPGEPGPQAPSRTPSPRSPAPARVKAELSSPTPGSSPVPGELGLAGALFLPQYVFGPDAAPPASEILAKMSELVHSRLQQGAGAGAGGAQTGLFPGAPKGATCFECEITFSNVNNYYVHKRLYCSGRRAPEDAPAARRPKAPPGPARAPPGQPAEPDAPRSSPGPGAREEGAGGAATPEDGAGGRGSEGSQSPGSSVDDAEDDPSRTLCEACNIRFSRHETYTVHKRYYCASRHDPPPRRPAAPPGPPGPAAPPAPSPAAPVRTRRRRKLYELHAAGAPPPPPPGHAPAPESPRPGSGSGSGPGLAPARSPGPAADGPIDLSKKPRRPLPGAPAPALADYHECTACRVSFHSLEAYLAHKKYSCPAAPPPGALGLPAAACPYCPPNGPVRGDLLEHFRLAHGLLLGAPLAGPGVEARTPADRGPSPAPAPAASPQPGSRGPRDGLGPEPQEPPPGPPPSPAAAPEAVPPPPAPPSYSDKGVQTPSKGTPAPLPNGNHRYCRLCNIKFSSLSTFIAHKKYYCSSHAAEHVK
In the case of B1, the binding is reported as “binds”.
